# Reference: the RNAGym collection of RNA variant scans (doi:10.1126/science.aae0568)
# Variants at the background level are over-represented here.
# B1: tRNA (parent)
# chain: GUUCCGUUGGCGUAAUGGUAACGCGUCUCCCUCCUAAGGAGAAGACUGCGGGUUCGAGUCCCGUACGGAACG
# Variants of: B1
# Experiment: yeast fitness relative to wild type (ratio to wild type); higher = fitter; tRNA-Arg(CCU), competitive growth, 37 C, YPD
# In short: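 Changes in genotype frequencies gave Darwinian fitness relative to wild type. Frequencies were read by 100-nucleotide paired-end sequencing of gene amplicons before and after pooled Saccharomyces cerevisiae strains, carrying tRNA-Arg(CCU) gene variants at the native locus, were competed in YPD at 37°C for 24 hours in six replicates. A genotype was kept only with ≥ 100 starting reads, and estimates < 0.5 were set to 0.5.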
row,Variant,yeast fitness
1,GUUCCGUUGGCCUAAUGGUAACGCGUAUCCCUCCUAAGGAGAAGACUGCGGGUUCGAGUCCCGUACUGAACG,≤ 0.5
2,GUUCCGUUGGCCUAAUGGUAACGCGUGUCCCUCCUAGGGAGAAGACUGCGGGUUCGACUCCCGUACGGAACG,≤ 0.5
3,GUUCCGUUGGCCUAAUGGUAACGCGUCUUCCUCCUAAGGAGAAGACUGCGGGUUCGAGUCCCGUACGGAACG,0.85
4,GUUCCGUUGGCCUAAUGGUAACGCGUCUUCCUCCUAAGGAGAAGGCUGCGAGUUCAAGUCCCCUACGGAACG,≤ 0.5
5,GUUCCGUUGGCCUAAUGGUAACGCGUCUUCCUUCUAAGGAGAAGACUGCGAGUUCAAGUCCCCUACGGAACG,≤ 0.5
6,GUUCCGUUGGCCUAAUGGUAACGCGUCUUCCUCCUAAGGAGAAAACUGCGAGUUCAAGUCCCCUACGGAACG,≤ 0.5
7,GUUCCGUUGGCCUAAUGGUAACGCGUCUCCUUCCUAAGGAGAAGACUGCGGGUUCGAGUCCGGUACGGAACG,0.557
8,GUUCCGUUGGCCUAAUGGUAACGCGUCUCCCUGCUAAGGAGAAGAAUGCGGGUUCGAGUCACGUACGGAACG,≤ 0.5
9,GUUCCGUUGGCCUAAUGGUAACGCGUCUCCCUGCAACGGAGAAGACUGCGGGUUCGAGUCCCGUACGGAACG,≤ 0.5
10,GUUCCGUUGGCCUAAUGGUAACGCGUCUCCCUUCUAAGGAGCAGACUGCGGGUUCGAGUCCCGUACGGAACG,≤ 0.5
11,GUUCCGUUGGCCUAAUGGUAACGCGUCUCCCUUCUAAGGAGAAGAGUGCGGGUACGAGUCCCGUACGGAACG,≤ 0.5
12,GUUCCGUUGGCCUAAUAGUAACGCGUCUACCUCCUAAGGAGAAAACUGCGGGUUCGAGUCCCGUACGGAACG,≤ 0.5
13,GUUCCGUUGGCCUAAUAGUAACGCGUCUCCCUCCUAAGGAGAAGACUGCGGGUUCGAGUCUCGUACGAAACG,≤ 0.5
14,GUUCCGUUGGCCUAAUGCUAACGCGUCUCCCUCCUAAGGAGAAGACUGCCGGUUCGAGUCCCGUACGGAACG,≤ 0.5
15,GUUCCGUUGGCCUAAUGGUAACGCCUCUCCCUCCUAAGGAGAAGACUGCGGGUUCGAGUCCCGUAGGGAACG,≤ 0.5
16,GUUCCGUUGGCCUAAUGGUAACGCGUCUCCCUCCUAAGGAGAAGACUGCGGGUUCGAGUCCCGUACCGAACG,0.825
17,GUUCCGUUGGCCCAAUGGUCACGGGUCUCUCUCCUAAGGAGAAGAUUGCGGCUUCGAGUCCCGUACGGAACG,≤ 0.5
18,GUUCCGUUGGCCUAACGGUAACGCGUCUCCCUCCUAAGGAGCAGACUGCGGGUUCGAGUCCCGUACGGAACG,≤ 0.5
19,GUUCCGUUGGCCUAAUGGCAACGCGUCUCCCUCCUAAGGAGAAGACUGGGGGUUCGAGUCCCGUACGGCACG,≤ 0.5

row,Variant,yeast fitness
1,GUUCCGUUGGCCUAAUGGUAACGCGUCUCCCCCCUAAGGAGAAGACUGCGGGUUCGAGUCCCGUGCGGAACG,0.569
2,GUUCCGUUGGCCUAAUGGUAACGCGUCUCCCUCCAAGGGAGAAGACUGCGGGUUCGAGUCCCGUACGGAACG,≤ 0.5
3,GUUCCGUUGGCCUAAUGGUAACGCGUCUCCCUCCUAAGGAGAAGACUGCGGGCUCGAGUGCCGUACGGAACG,≤ 0.5
4,GUUCCGUUGGCUUAAUGGUAACGCGUCUCCCUCCUGAGGAGAAGACUGCGGGUUCGAGUCCGGUACGGAACG,≤ 0.5
5,GUUCCGUUGGCUUAAUGGUAACGCGUCUCCCUUGUAAGGAGAAGACUGCGGGUUCGAGUCCCGUACGGAACG,≤ 0.5
6,GUUCCGUUGGCUUAAUGGUAACGCGUCUCCCUCCUAAGGAGAAGAUUGCGGGUUCGCGUGCCGUACGGAACG,≤ 0.5
7,GUUCCGUUGGCGACAUGGUAAAGCGUCUCCCUCCUAAGGAGAAGACUCCGGGUUCGAGUCCCGUACGGCACG,≤ 0.5
8,GUUCCGUUGGCGAUAUGGUAACGGGUCGCCUUCCUAAGGAGAAGCCUGCGGGUUCGAGUCCCGUACGGAACG,≤ 0.5
9,GUUCCGUUGGCGAAGUGGUAACGCGUCUGGCUCCUAAGGAGAAGACUGAGGGUUCCAGUCUCGUACGGAACG,≤ 0.5
10,GUUCCGUUGGCGAAGUGGUAACGCGUCUCCCUCCUAAGGAGAAGACUACGGGUUCGAGUCCCAUCCGGAACG,≤ 0.5
11,GUUCCGUUGGCGAAAUGGUGACGCGUCUCCCUCCUAAGGAGAAGCCUGCGGGUUCGAGUCCCGUAGGGAACG,≤ 0.5
12,GUUCCGUUGGCGAAAUGGUACCGCGUCUCCCUCCUAAAGAGAACACUGCGGGUACGAGUCCCGUACGGAACG,≤ 0.5
13,GUUCCGUUGGCGAAAUGGUACCGCGUCUCCCUCCCAAGAAGCGGAUUGCGGGUUCGAGUCCCGUCCGGAACG,0.55
14,GUUCCGUUGGCGAAAUGGUAACGCGUCUCCCUCCUAUGGAGAAGACUGCGGGGUCGAGUCCCGUACGGAACG,0.536
15,GUUCCGUUGGCGAAAUGGUAACGCGUCUCCCUCCUAAGGGGAAGACGGCGGGUUCGAGUCCCGUACGGAACG,≤ 0.5
16,GUUCCGUUGGCGAAAUGGUAACGCGUCUCCCUCCUAAGGGGAAGACGGCGGGUUCGAGUCCCCUACGGAACG,0.535
17,GUUCCGUUGGCGAAAUGGUAACGCGUCUCCCUCCUAAGGAGUAGACUGCGGGUUCGAGUCCCGUAUGGAACG,0.704
18,GUUCCGUUGGCGAAAUGGUAAAGCGUCUCCCUCCUAAGGAGAAGACUGCGGGUUCGAGUCGCGUACGGUACG,≤ 0.5
